Several values for one entry are separate records, joined by “and”; a condition that tells them apart may be missing. Equal entries are not always repeated. This is one part of the list. These are further read-outs of the screen, such as a control signal, another cell line or another target. No call is given for them. The list favours compounds with an active or inconclusive main result. Potencies come from curve fits of mixed quality, noted in brackets.
Experiment: qHTS Assay for Modulators of Lamin A Splicing
Settings: HeLa LMNA splicing GFP/RFP minigene ratio, 48 h
Procedure, shortened: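 Read-out is the ratio of GFP to DsRed2 object intensity, acquired by 488 nm laser-scanning cytometry on HeLa lamin A-EGFP minigene reporter cells. Compound incubation 48 hrs at 37 °C in Opti-MEM with 2% FBS; DMSO 0.5% final.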

[1] = measured here: RFP viability control channel
[2] = measured here: GFP splicing reporter channel

CCCCCCCCNc1ncnc2ccccc12
AC50 [1]: 0.251 µM [rising, full curve]

CC(C)CNC(=O)CN(C1CCCCC1)S(C)(=O)=O
AC50 [1]: 0.562 µM [rising, full curve, poor fit]

CC1CCCN(C2=C(NS(=O)(=O)c3ccc(Cl)cc3)C(=O)c3ccccc3C2=O)C1 (stereo unspecified)
AC50 [1]: 0.0126 µM [falling, full curve, poor fit]

Cc1ccc(C2c3[nH]c4ccccc4c3CCN2C(=O)c2ccccc2Br)cc1 (stereo unspecified)
AC50 [1]: 35.5 µM [rising, partial curve]

C=C(C)C1CC=C(C)/C(=N\NC(=O)CNc2ccccc2OC)C1 (stereo unspecified)
AC50 [1]: 25.1 µM [rising, single point]

O=C(CN1CC(=O)Oc2ccccc21)OCC(=O)c1cccc(Br)c1
AC50 [2]: 2.24 µM [falling, partial curve]
AC50 [1]: 1.12 µM [falling, partial curve]

COc1ccc(S(=O)(=O)N(C)c2ccc(C(=O)N3CCCC3)cc2)cc1
AC50 [2]: 0.0126 µM [rising, full curve, poor fit]

CCc1ccc(NC(=O)COn2nnc3ccc(S(=O)(=O)N(C)C)cc32)cc1
AC50 [1]: 20 µM [rising, single point]

O=C(O)C1Nc2c(O)cc(Cl)c([N+](=O)[O-])c2C2C=CCC12 (stereo unspecified)
AC50 [1]: 0.1 µM [rising, full curve, poor fit]

COc1ccc(/C=C/C(=O)c2nc3ccccc3n2CC(=O)c2ccc(OC)cc2)cc1
AC50 [1]: 35.5 µM [rising, single point]

COC(=O)c1ccccc1NC(=O)c1ccc(COc2ccc3c(c2)CCC3)cc1
AC50 [2]: 1.78 µM [rising, full curve, poor fit]

COc1ccc(Cc2noc(CN(C)Cc3ccc(-n4cccn4)cc3)n2)cc1OC
AC50 [1]: 1.26 µM [falling, partial curve]

NC(=O)C[n+]1cccc(/C=N/O)c1
AC50 [2]: 0.501 µM [rising, full curve, poor fit]

Nc1nc2ncc(CNc3ccc(C(=O)NC(CCC(=O)O)C(=O)O)cc3)nc2c(=O)[nH]1 (stereo unspecified)
AC50 [2]: 0.00224 µM [falling, full curve, poor fit]

CCCCN1Cc2c(nc3cc(-c4ccccc4)[nH]n3c2=O)C1=O
AC50 [1]: 0.0447 µM [falling, full curve, poor fit]

CNc1ccccc1C(=O)N1CCc2c([nH]c3ccccc23)C1=O
AC50 [2]: 15.8 µM [falling, partial curve, poor fit]
AC50 [1]: 20 µM [rising, single point]

CCc1ccc(-c2[nH]nc3nc(-c4ccc(OC)cc4)cc(C(=O)NCCCOC)c23)cc1
AC50 [2]: 7.08 µM [rising, partial curve]

Cc1ccccc1N=C1Nc2ccccc2CS1
AC50 [2]: 11.2 µM [rising, partial curve]
AC50 [1]: 22.4 µM [rising, partial curve]

CC1CCN(CCCOc2ccc(OCc3ccccc3)cc2)CC1
AC50 [1]: 31.6 µM [rising, single point]

Cc1cccc(C)c1Nc1nnc(SCC(=O)c2ccc(Br)s2)s1
AC50 [1]: 35.5 µM [rising, single point]

Cc1nc2ccc(S(=O)(=O)N(CC(=O)Nc3cccc(Cl)c3)Cc3ccccc3)cc2s1
AC50 [1]: 0.00316 µM [falling, full curve, poor fit]

CC(=O)OCC1OC(Oc2cc(OC(C)=O)c3c(=O)cc(-c4ccc(OC(C)=O)cc4)oc3c2)[C@@H](OC(C)=O)C(OC(C)=O)C1OC(C)=O (stereo partly specified)
AC50 [2]: 17.8 µM [falling, partial curve]
AC50 [1]: 15.8 µM [falling, partial curve]

Cc1ccc(OCCN2CCN(c3ncnc4sc(C)c(C)c34)CC2)cc1
AC50 [2]: 2.82 µM [rising, full curve]
AC50 [1]: 2.51 µM [rising, full curve]

CCCCOc1ccc(CNC(=O)Cc2ccc(NC(=O)N3CCCCc4ccccc43)cc2)cc1
AC50 [1]: 35.5 µM [rising, single point]

Cc1ccc(CN2CCN(Cc3c(C)nn(-c4ccc(F)cc4)c3C)CC2CCO)o1 (stereo unspecified)
AC50 [2]: 0.141 µM [falling, single point]
AC50 [1]: 0.1 µM [falling, single point]

COc1ccc(-c2nc(SCC(=O)N3CCN(c4ccc(F)cc4)CC3)n[nH]2)cc1
AC50 [2]: 1.41 µM [rising, partial curve, poor fit]

CN1CCN(c2ncc3nc(CCc4ccccc4)c(=O)n(C4CC4)c3n2)CC1
AC50 [2]: 20 µM [falling, single point]
AC50 [1]: 20 µM [falling, partial curve]

Cn1c(Sc2ccccc2Cl)c(C=O)c2ccccc21
AC50 [2]: 0.631 µM [falling, full curve]

CCOC(=O)c1c(NC(=O)C2C3C=CC(C3)C2C(=O)O)sc2c1CCC(CC)C2 (stereo unspecified)
AC50 [1]: 15.8 µM [rising, partial curve]

COc1ccc(OC)c(Nc2cc(-c3ccccc3)nc(N)n2)c1
AC50 [2]: 35.5 µM [falling, single point]

Nc1c2c(nc3ccccc13)CCCC2O (stereo unspecified)
AC50 [2]: 2 µM [falling, full curve]
AC50 [1]: 1.41 µM [falling, full curve, poor fit]

Cc1ccc(S(=O)(=O)N2CCCc3cc(NS(=O)(=O)c4cc(F)ccc4F)ccc32)cc1
AC50 [2]: 35.5 µM [rising, partial curve, poor fit]
AC50 [1]: 22.4 µM [rising, single point]

CCn1c2ccccc2c2cc(NC(=O)Cc3ccc(S(=O)(=O)N4CCOCC4)s3)ccc21
AC50 [1]: 31.6 µM [rising, single point]

O=C(Cn1cc(S(=O)(=O)N2CCCC2)c(S(=O)(=O)N2CCCC2)c1)Nc1ccccc1
AC50 [2]: 0.794 µM [falling, full curve, poor fit]
AC50 [1]: 0.398 µM [falling, full curve]

CCc1nnc(NC(=O)c2ccc(S(=O)(=O)N(CC(C)C)CC(C)C)cc2)o1
AC50 [1]: 15.8 µM [rising, partial curve]

O=C(N1CCOCC1)N1CCN(c2nc(-c3ccc(F)cc3)cs2)CC1
AC50 [1]: 17.8 µM [rising, partial curve, poor fit]

CC(=O)CCc1c(C)c2cccc(C)c2[nH]c1=O
AC50 [2]: 20 µM [falling, partial curve, poor fit]
AC50 [1]: 3.55 µM [falling, partial curve, poor fit]

COC(=O)N/N=C/c1ccc(-c2cc(Cl)cc(Cl)c2)o1
AC50 [1]: 8.91 µM [rising, partial curve]

Cc1cc(N)c2ccccc2[n+]1CCCCCCCCCC[n+]1c(C)cc(N)c2ccccc21
AC50 [2]: 5.01 µM [falling, full curve, poor fit]
AC50 [1]: 794 nM [falling, partial curve, poor fit] and 5.01 µM [falling, full curve, poor fit]

CCN(CC)c1ccc2cc(C=O)c(=O)oc2c1
AC50 [2]: 14.1 µM [rising, single point]

CCCCNc1nc(-c2ccccc2)c(C(=O)OCC)cc1C#N
AC50 [2]: 35.5 µM [falling, single point]
AC50 [1]: 35.5 µM [falling, single point]

O=C(CC(c1ccccc1)c1ccccc1O)NCc1ccco1 (stereo unspecified)
AC50 [2]: 12.6 µM [rising, single point]
AC50 [1]: 12.6 µM [rising, single point]

O=C(CSc1ncnc2scc(-c3ccc(Cl)cc3)c12)NCc1ccc2c(c1)OCO2
AC50 [2]: 11.2 µM [falling, partial curve]
AC50 [1]: 11.2 µM [falling, single point]

COc1ccc(Oc2ncc3nc(-c4cccc(C#N)c4)c(=O)n(Cc4cccc(OC)c4)c3n2)cc1
AC50 [2]: 10 µM [falling, partial curve]
AC50 [1]: 17.8 µM [falling, partial curve, poor fit]

O=[N+]([O-])c1cc(Cl)c2cccnc2c1O
AC50 [2]: 11.2 µM [falling, single point]

CCOC(=O)C1=C(C)N=c2s/c(=C\c3ccncc3)c(=O)n2C1c1ccc2c(c1)OCO2 (stereo unspecified)
AC50 [1]: 12.6 µM [rising, single point]

COc1ccc2c(c1)c(C(O)CN1CCN(Cc3ccc4c(c3)OCO4)CC1)c(C)n2C (stereo unspecified)
AC50 [2]: 35.5 µM [rising, single point]
AC50 [1]: 35.5 µM [rising, single point]

CCc1cccc2c(C(=O)CSc3nncn3-c3ccc(OC)cc3)c[nH]c12
AC50 [1]: 35.5 µM [rising, single point]

COc1ccc(-c2noc(CCC(=O)NCC3CCN(Cc4cccc(C)c4)CC3)n2)cc1
AC50 [1]: 31.6 µM [rising, single point]

O=[N+]([O-])c1ccc(N2CCOCC2)cc1NC(c1ccccc1)c1ccccc1
AC50 [2]: 2.82 µM [rising, partial curve]

CCCCCCCCCCCCC/C=C/[C@@H](O)[C@@H](N)CO
AC50 [2]: 5.62 µM [falling, full curve, poor fit]
AC50 [1]: 5.01 µM [falling, full curve, poor fit]

CC(=O)OCC1O[C@@H](O[C@@H]2C[C@H]3C(C)(C)[C@H](OC(C)=O)CC[C@]3(C)[C@H]3CC[C@]45C[C@]4(CC[C@H]5[C@@H](C)C[C@@H](O)[C@H](O)C(C)(C)O)[C@@]32C)[C@H](O)[C@@H](O)[C@@H]1O (stereo partly specified)
AC50 [1]: 17.8 µM [rising, single point]

COc1ccc(CC(=O)NCCc2sc3nc(-c4ccc(OC)cc4)nn3c2C)cc1
AC50 [2]: 14.1 µM [falling, single point]
